The list shows a part of the results. Shown are side measurements of this screen, not its main read-out; they come without a call. Most of these compounds were active or inconclusive in the main read-out, so they are no random draw. Words in brackets tell the shape of the fitted curve; partial curves, single points and poor fits give uncertain potencies.
Assay: qHTS Assay for Lipid Storage Modulators in Drosophila S3 Cells;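 as to cell number change: cells counted by Cell Tracker Red CMTPX staining in the red channel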
Details: BODIPY lipid droplet fluorescence, 18-24 h; for cell number change: measured here: cell count max response, cells fed with added oleic acid
Procedure, shortened: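 Drosophila S3 cells loaded with oleic acid (400 uM, as added) and compounds at several concentrations; lipid droplets imaged by 488-nm laser-scanning cytometry, 500–530 nm intensity and object ratio to cell channel. Percent activity normalized to 20 uM Triacsin C.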

[1] = measured here: lipid fluorescence (Fed channel) AC50, cells fed with added oleic acid
[2] = measured here: cell number channel AC50, cells fed with added oleic acid

SMILES	cell number change	AC50 [1]	AC50 [2]
Cc1ccc(NC(=O)COC(=O)c2ccc(=O)n(Cc3ccccc3)n2)cc1F	22.5%	–	–
CN(C)CCCCCN(C)Cc1cc2ccccc2o1	-9%	0.651 µM [falling, single point]	–
COC(=O)c1sccc1-c1ccc(C(=O)Nc2cccnc2)o1	-7.5%	29.1 µM [rising, single point]	–
Cc1ccc(OCC(=O)N(C)CC(=O)Nc2ccc(N3CCOCC3)cc2)cc1	-40.4%	7.31 µM [falling, partial curve, poor fit]	5.8 µM [falling, full curve]
O=C(CSc1cn[nH]n1)Nc1ccc(O)c(C(=O)O)c1	-3.85%	5.17 µM [rising, single point]	–
COc1ccc(-c2noc(CNC(=O)c3ccoc3C)n2)cc1OC	-11.8%	–	–
N=c1sccn1CC(=O)Nc1ccc(SC(F)F)cc1	-13.3%	–	–
Cc1ccc(C2NC(=NCc3ccccc3)Nc3nc(C)cc(=O)n32)cc1 (stereo unspecified)	24.8%	–	1.46 µM [rising, full curve, poor fit]
CC(=O)c1ccccc1OCCOCCOc1ccccc1C(C)=O	1.69%	9.2 µM [rising, partial curve]	–
CCOc1ccc(NC(=O)CC2S/C(=N/N=C3CCCCCC3)NC2=O)cc1 (stereo unspecified)	–	10.3 µM [rising, partial curve]	–
CCOc1ccc(/C=N/NC(=O)Nc2ccccc2)cc1	-34.4%	18.4 µM [falling, partial curve]	13 µM [falling, partial curve]
Cc1ccc(C(=O)CN(C(=O)c2ccc(Cl)c(Cl)c2)N2C(=O)C3CCCCC3C2=O)cc1C (stereo unspecified)	13.1%	–	–
CC(Oc1ccc(Cl)cc1)c1ccc(C#N)c(=O)[nH]1 (stereo unspecified)	-5.63%	–	0.092 µM [rising, full curve, poor fit]
O=C(COC(=O)c1cnccn1)c1ccc2c(c1)CCCC2	-6.53%	7.31 µM [rising, partial curve, poor fit]	–
CCC1CCC(N2CCN(c3ccccc3F)CC2)CC1 (stereo unspecified)	8.58%	–	–
Oc1ccccc1C1CCCCC1c1ccccc1 (stereo unspecified)	-9.01%	29.1 µM [falling, single point]	–
COc1ccc(C)cc1NCc1ccc([N+](=O)[O-])cc1	27.4%	–	0.259 µM [rising, full curve, poor fit]
Cc1ccc2nc(N(CCCN(C)C)C(=O)c3ccc4ncsc4c3)sc2c1	23.9%	–	–
CCc1onc(C)c1C(=O)Nc1ccc(N2CCOCC2)cc1	-66.7%	25.9 µM [falling, partial curve, poor fit]	25.9 µM [falling, partial curve, poor fit]
O=C(COC(=O)/C=C/c1ccc(C(F)(F)F)cc1)NCCC1=CCCCC1	0.647%	–	–

SMILES	cell number change	AC50 [1]	AC50 [2]
CC(=O)c1cccc(NC(=O)Cn2nc(-c3ccc(Cl)cc3)ccc2=O)c1	8.98%	–	–
O=C(O)c1ccc(N/N=C/c2cn(Cc3ccccc3F)c3ccccc23)cc1	11.7%	29.1 µM [rising, single point]	–
COc1ccc(-n2cc(CN(C)C3CCOCC3)c(-c3cccc(F)c3)n2)cc1	18.1%	16.4 µM [rising, single point]	–
COc1ccc(-c2cc(C(=O)OCC(=O)N(C)C)c3ccccc3n2)cc1	19.6%	0.517 µM [rising, full curve]	0.92 µM [rising, partial curve]
CCCCN(CCCNC(=O)Cn1nc(CC)n2c(cc3sc(C)cc32)c1=O)Cc1ccccc1	34.6%	–	–
CC(Sc1n[nH]c(N)n1)C(=O)C12CC3CC(CC(C3)C1)C2 (stereo unspecified)	–	0.651 µM [rising, single point]	0.731 µM [rising, single point]
O=C(NNC(=O)C1CCN(Cc2cccc(F)c2)CC1)c1cccs1	20.6%	16.4 µM [rising, single point]	–
CC(C)CCNc1ncnc2c1nnn2Cc1ccccc1	3.16%	–	–
O=C(Nc1ncccc1Cl)C(Sc1ccccc1)c1ccccc1 (stereo unspecified)	-19.2%	29.1 µM [falling, single point]	–
O=C(NCCCn1ccnc1)c1cc(-c2cccnc2)nc2ccc(Br)cc12	164%	–	–
COCCn1nnnc1C(c1cccs1)N1CCN(c2cccc(C(F)(F)F)c2)CC1 (stereo unspecified)	4.3%	25.9 µM [rising, single point]	–
O=C(/C=C/c1ccccc1)c1ccccn1	-46.3%	32.6 µM [falling, single point]	23.1 µM [falling, single point]
O=C(CSc1nc(-c2ccco2)cc(C(F)(F)F)n1)Nc1ccccc1C(F)(F)F	-33.3%	9.2 µM [falling, partial curve]	7.31 µM [falling, partial curve]
Cc1cc(Cl)ccc1OCC(=O)NCCOc1nc(N2CCCCC2)nc(N2CCOCC2)n1	–	5.17 µM [rising, full curve]	–
Cn1c(=O)n(CC(=O)O)c(=O)c2c1nc1n2CCCN1CCc1ccccc1	6.08%	0.259 µM [rising, full curve]	–
CCN(CC)S(=O)(=O)c1ccc(/C=C/C(=O)OCC(=O)NCc2cccs2)cc1	-43.7%	0.731 µM [falling, full curve]	32.6 µM [falling, partial curve]
O=C(Nc1ncc2c(n1)CC(c1ccc(Cl)cc1)CC2=O)c1ccco1 (stereo unspecified)	7.98%	–	–
COc1cccc(CN(C)C(=O)c2ccc(C)c(S(=O)(=O)N3CCCCC3)c2)c1	11.5%	0.082 µM [falling, full curve, poor fit]	0.13 µM [falling, full curve, poor fit]
COc1ccsc1NC(=O)OCc1ccc(Cl)cc1	32.2%	9.2 µM [rising, partial curve]	11.6 µM [rising, partial curve]
Cc1cccc(-c2n[nH]c(=S)n2Cc2ccccc2)c1	-44.4%	20.6 µM [falling, single point]	20.6 µM [falling, single point]

Twelve entries out of the list, sorted by number of heavy atoms, descending.
SMILES	cell number change	AC50 [1]	AC50 [2]
CCCCN(CCCNC(=O)Cn1nc(CC)n2c(cc3sc(C)cc32)c1=O)Cc1ccccc1	34.6%	–	–
Cc1cc(Cl)ccc1OCC(=O)NCCOc1nc(N2CCCCC2)nc(N2CCOCC2)n1	–	5.17 µM [rising, full curve]	–
O=C(CSc1nc(-c2ccco2)cc(C(F)(F)F)n1)Nc1ccccc1C(F)(F)F	-33.3%	9.2 µM [falling, partial curve]	7.31 µM [falling, partial curve]
COc1ccc(-n2cc(CN(C)C3CCOCC3)c(-c3cccc(F)c3)n2)cc1	18.1%	16.4 µM [rising, single point]	–
O=C(NCCCn1ccnc1)c1cc(-c2cccnc2)nc2ccc(Br)cc12	164%	–	–
COc1ccc(-c2cc(C(=O)OCC(=O)N(C)C)c3ccccc3n2)cc1	19.6%	0.517 µM [rising, full curve]	0.92 µM [rising, partial curve]
O=C(Nc1ncc2c(n1)CC(c1ccc(Cl)cc1)CC2=O)c1ccco1 (stereo unspecified)	7.98%	–	–
O=C(NNC(=O)C1CCN(Cc2cccc(F)c2)CC1)c1cccs1	20.6%	16.4 µM [rising, single point]	–
O=C(Nc1ncccc1Cl)C(Sc1ccccc1)c1ccccc1 (stereo unspecified)	-19.2%	29.1 µM [falling, single point]	–
CC(Sc1n[nH]c(N)n1)C(=O)C12CC3CC(CC(C3)C1)C2 (stereo unspecified)	–	0.651 µM [rising, single point]	0.731 µM [rising, single point]
COc1ccsc1NC(=O)OCc1ccc(Cl)cc1	32.2%	9.2 µM [rising, partial curve]	11.6 µM [rising, partial curve]
O=C(/C=C/c1ccccc1)c1ccccn1	-46.3%	32.6 µM [falling, single point]	23.1 µM [falling, single point]
